These are yes or no findings as the source states them, for the method shown. In cells and extracts the contact can be indirect. Some entries that bind do so weakly or less than the wild type.
T1: NCAPD3 (human (endogenous in HT-29 and RPE-1)) (UniProt P42695)
T1 sequence: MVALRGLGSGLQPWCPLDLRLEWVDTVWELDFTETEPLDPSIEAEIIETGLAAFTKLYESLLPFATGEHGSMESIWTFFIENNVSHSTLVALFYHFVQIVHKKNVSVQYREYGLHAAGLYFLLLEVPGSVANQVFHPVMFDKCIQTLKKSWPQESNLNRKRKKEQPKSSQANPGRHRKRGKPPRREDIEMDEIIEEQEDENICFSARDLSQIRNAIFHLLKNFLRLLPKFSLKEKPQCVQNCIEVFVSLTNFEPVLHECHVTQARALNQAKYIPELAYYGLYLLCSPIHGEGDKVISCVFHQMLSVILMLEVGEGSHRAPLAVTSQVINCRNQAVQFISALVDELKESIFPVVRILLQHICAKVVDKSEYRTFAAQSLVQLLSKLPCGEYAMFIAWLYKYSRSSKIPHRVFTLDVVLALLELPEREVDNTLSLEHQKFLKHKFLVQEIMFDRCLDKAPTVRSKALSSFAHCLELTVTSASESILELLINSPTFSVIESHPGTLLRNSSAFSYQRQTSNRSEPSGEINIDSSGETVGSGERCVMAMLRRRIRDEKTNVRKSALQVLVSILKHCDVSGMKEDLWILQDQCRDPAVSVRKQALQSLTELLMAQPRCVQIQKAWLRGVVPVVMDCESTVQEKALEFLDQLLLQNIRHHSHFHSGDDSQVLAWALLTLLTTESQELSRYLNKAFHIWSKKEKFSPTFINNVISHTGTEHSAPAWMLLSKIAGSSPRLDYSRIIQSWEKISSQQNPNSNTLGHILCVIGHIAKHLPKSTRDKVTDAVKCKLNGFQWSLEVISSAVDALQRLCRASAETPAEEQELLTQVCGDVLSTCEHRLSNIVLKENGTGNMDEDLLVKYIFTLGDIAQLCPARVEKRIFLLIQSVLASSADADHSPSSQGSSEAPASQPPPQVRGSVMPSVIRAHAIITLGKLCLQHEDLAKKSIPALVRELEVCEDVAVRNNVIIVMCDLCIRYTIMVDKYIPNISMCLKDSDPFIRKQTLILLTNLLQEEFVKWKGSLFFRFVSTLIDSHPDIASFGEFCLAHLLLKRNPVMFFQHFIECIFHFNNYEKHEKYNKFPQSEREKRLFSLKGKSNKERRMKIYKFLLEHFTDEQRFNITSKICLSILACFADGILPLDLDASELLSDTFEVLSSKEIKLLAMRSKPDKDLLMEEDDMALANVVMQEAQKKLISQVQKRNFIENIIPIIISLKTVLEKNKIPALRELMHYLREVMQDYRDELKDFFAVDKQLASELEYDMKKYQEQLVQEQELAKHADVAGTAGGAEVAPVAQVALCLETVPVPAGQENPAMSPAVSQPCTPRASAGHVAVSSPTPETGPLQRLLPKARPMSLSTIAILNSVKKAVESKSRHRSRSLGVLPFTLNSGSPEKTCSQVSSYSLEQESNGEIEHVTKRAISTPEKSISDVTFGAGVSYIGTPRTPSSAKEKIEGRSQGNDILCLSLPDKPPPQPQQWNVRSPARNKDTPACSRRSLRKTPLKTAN

Amino acid sequences for entries named in this document (tags omitted).
UniProt P07814: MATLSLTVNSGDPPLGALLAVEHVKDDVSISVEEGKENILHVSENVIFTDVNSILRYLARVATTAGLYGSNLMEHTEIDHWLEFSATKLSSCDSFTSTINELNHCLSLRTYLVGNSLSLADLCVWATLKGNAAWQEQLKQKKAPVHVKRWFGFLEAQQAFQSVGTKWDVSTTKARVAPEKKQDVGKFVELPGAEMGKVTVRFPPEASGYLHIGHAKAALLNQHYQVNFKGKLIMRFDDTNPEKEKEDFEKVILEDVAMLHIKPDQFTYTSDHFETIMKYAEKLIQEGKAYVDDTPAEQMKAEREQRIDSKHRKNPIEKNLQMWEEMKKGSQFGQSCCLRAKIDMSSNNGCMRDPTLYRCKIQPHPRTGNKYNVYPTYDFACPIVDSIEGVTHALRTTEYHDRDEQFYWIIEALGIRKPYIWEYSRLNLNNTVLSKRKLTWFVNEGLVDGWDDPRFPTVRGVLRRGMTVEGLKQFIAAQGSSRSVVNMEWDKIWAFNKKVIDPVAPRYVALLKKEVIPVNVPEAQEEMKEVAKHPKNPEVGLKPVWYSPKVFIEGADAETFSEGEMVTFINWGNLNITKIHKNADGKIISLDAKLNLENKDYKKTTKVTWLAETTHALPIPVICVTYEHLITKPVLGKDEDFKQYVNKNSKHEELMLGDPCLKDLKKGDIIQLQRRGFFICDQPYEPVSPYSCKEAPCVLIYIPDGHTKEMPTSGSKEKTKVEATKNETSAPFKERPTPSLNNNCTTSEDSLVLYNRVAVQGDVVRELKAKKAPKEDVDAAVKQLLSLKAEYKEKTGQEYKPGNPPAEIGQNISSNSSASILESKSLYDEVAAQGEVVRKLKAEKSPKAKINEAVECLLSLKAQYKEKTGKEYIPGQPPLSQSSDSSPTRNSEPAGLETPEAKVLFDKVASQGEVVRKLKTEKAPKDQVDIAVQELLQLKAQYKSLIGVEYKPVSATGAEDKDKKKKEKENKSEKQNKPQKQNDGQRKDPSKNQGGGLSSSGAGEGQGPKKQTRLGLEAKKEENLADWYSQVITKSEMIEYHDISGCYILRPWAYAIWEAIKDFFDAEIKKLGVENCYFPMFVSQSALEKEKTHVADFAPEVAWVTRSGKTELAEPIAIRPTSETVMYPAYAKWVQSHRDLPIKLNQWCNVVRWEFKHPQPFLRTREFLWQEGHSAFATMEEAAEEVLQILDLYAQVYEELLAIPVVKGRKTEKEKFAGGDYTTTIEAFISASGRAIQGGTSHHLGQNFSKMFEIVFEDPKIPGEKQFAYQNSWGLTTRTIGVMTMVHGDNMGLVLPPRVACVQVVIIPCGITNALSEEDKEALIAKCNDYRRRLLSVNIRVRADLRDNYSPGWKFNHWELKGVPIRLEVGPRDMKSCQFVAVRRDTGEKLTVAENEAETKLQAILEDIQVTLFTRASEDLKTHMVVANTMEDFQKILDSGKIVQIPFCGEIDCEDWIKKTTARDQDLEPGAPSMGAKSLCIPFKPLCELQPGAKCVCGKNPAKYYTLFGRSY
UniProt Q15021: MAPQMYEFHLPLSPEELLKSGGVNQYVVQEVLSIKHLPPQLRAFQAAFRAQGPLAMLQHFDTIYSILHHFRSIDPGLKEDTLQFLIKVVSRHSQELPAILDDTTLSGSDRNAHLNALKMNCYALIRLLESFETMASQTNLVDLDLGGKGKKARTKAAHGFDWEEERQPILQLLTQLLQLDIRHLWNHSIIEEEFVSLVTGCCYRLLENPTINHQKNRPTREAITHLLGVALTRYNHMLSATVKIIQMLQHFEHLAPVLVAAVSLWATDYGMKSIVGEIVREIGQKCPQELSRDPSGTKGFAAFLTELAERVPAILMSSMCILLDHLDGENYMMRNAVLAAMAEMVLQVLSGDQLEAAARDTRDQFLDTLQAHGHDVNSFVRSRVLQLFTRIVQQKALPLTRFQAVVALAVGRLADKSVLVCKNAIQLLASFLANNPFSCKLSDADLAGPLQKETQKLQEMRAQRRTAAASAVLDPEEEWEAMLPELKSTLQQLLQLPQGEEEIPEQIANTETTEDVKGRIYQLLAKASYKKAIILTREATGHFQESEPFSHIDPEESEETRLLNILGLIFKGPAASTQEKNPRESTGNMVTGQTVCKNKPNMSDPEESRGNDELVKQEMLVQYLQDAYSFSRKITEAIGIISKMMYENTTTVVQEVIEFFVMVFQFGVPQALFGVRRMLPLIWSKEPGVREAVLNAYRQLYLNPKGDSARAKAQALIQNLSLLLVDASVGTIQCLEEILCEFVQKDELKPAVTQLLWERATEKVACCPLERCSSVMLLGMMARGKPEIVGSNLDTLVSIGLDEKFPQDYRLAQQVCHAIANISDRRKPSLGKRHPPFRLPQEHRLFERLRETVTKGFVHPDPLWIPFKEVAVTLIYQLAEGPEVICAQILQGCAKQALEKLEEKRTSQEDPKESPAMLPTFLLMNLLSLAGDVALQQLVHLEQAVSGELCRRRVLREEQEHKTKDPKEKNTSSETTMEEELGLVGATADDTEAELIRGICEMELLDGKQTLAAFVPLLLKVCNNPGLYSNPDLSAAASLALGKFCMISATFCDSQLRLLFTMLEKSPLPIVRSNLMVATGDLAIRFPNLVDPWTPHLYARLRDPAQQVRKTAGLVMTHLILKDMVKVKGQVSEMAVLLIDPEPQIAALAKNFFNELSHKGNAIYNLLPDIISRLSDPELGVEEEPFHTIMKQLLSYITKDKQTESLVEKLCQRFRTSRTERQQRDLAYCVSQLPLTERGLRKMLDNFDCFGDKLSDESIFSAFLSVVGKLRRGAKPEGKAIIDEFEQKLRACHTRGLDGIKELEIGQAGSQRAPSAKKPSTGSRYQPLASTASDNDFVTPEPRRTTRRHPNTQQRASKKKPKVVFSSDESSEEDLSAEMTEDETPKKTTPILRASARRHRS

T2: NCAPG2 (human (endogenous in HT-29)) (UniProt Q86XI2)
T2 sequence: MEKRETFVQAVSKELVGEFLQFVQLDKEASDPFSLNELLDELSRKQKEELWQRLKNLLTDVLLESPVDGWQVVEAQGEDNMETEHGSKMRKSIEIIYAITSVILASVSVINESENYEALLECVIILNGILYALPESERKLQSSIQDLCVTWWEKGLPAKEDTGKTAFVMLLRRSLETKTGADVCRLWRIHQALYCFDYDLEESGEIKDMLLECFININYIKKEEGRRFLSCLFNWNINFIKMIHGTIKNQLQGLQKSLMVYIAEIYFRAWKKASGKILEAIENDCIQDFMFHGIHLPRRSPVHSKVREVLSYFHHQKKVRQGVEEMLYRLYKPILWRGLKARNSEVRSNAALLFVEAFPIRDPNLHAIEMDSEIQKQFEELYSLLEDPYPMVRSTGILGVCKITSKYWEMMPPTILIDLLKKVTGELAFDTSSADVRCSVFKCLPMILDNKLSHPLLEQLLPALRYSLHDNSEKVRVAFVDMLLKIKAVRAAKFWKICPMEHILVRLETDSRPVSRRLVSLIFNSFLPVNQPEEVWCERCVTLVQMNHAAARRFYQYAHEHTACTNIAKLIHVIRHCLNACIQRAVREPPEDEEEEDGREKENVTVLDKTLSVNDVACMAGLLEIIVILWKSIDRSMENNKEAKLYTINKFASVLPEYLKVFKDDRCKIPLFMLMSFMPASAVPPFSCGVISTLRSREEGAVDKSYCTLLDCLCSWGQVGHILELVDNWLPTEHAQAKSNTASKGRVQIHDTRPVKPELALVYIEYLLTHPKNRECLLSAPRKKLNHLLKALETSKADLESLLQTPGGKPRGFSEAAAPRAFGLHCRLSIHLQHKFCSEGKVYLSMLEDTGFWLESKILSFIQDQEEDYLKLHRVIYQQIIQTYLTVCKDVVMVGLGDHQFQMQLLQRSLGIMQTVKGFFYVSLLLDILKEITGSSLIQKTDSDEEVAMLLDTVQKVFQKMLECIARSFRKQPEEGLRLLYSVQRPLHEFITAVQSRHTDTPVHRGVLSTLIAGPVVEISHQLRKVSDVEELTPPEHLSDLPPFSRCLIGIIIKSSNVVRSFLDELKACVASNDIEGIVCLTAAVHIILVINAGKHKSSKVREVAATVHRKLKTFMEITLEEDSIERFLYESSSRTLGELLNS

B1: NCAPD3 (protein, UniProt P42695 1-1498)
chain: T1 sequence

Columns and labels:
[1] = biological target: EPRS (human (endogenous in HT-29)) (UniProt P07814); assay: co-IP; endogenous proteins in HT-29 whole cell lysates, immunoblot; antibody only (no lysate) and IgG IPs as negative controls; for NCAPD3 with EPRS, cells induced to express NT shRNA or NCAPD2 shRNA; done as described previously (ref. 31)
[2] = biological target: T1, NCAPD3 (human (endogenous in HT-29 and RPE-1)); assay: as above
[3] = biological target: T2, NCAPG2 (human (endogenous in HT-29)); assay: as above
[4] = biological target: T1, NCAPD3 (human (endogenous in HT-29 and RPE-1)); assay: condition: only RPE-1 cells transfected with the pCEP4 empty vector (no L1 expression vector); co-IP; endogenous proteins in lysates of RPE-1 cells transfected with the pCEP4 empty vector, immunoblot; antibody only (no lysate) and IgG IPs as controls
[5] = biological target: T1, NCAPD3 (human (endogenous in HT-29 and RPE-1)); assay: co-IP; endogenous proteins in lysates of RPE-1 cells transfected with the pJM101/L1.3 expression vector, immunoblot; antibody only (no lysate) and IgG IPs as controls
[6] = biological target: T1, NCAPD3 (human (endogenous in HT-29 and RPE-1)); assay: proximity ligation; DuoLink PLA on fixed, permeabilised HT-29 cells with NCAPD3 (rabbit) and NCAPD2 (mouse) antibodies; nuclear and cytoplasmic foci per cell counted; cells transfected with siCTRL or siL1, treated with DMSO or 50 uM Didanosine and Zidovudine, or transfected with pCEP4, pJM101/L1.3 or pJM101/L1.3 3'UTR deletion
[7] = biological target: NCAPD2 (human (endogenous in HT-29 and RPE-1)) (UniProt Q15021); assay: co-IP; endogenous proteins in HT-29 whole cell lysates, immunoblot; antibody only (no lysate) and IgG IPs as negative controls; for NCAPD3 with EPRS, cells induced to express NT shRNA or NCAPD2 shRNA; done as described previously (ref. 31)

| Molecule | binding [1] | binding [2] | binding [3] | binding [4] | binding [5] | binding [6] | binding [7] |
| --- | --- | --- | --- | --- | --- | --- | --- |
| NCAPD2 (from UniProt Q15021 1-1401) | binds | binds | binds | no binding | binds | binds |  |
| B1 | binds |  |  |  |  |  | binds |

Reference: PMC9561375
